Data taken from US4710497A, “Method for percutaneously administering physiologically active agents” (Nitto Electric Industrial Co., Ltd., priority 1985, dated 1987).

What was measured:
[1] = man; therapeutic oral doses; Kaplan et al 1973; cited from earlier work
in vivo = settings: rhesus monkey
Procedure: Male rhesus monkeys weighing 10-14 Kg each were used as the subject. An appropriate area of the monkey's chest was shaved 24 hours before drug application.
Drug formulations comprising the PEAC were applied to a certain area of the chest as indicated in each example. The monkey was restrained in a chair to prevent it from touching its chest.
Blood samples were taken at appropriate intervals after the application. The heparinized blood was centrifuged, and the plasma was removed and stored at -20° C. until analyzed. […]
To this solution was added 120 mg of Klucel® (cross-linked hydroxypropylcellulose type HF, Hercules Inc.) and the same stirred thoroughly to obtain a uniform gel.
1.0 ml of the gel was applied to 49 cm^2 of the chest area of the monkey; the applied area was left open to the air for the duration of the experiment.
In all instances the in vitro diffusion cell technique or the in vivo rhesus monkey test earlier described were used. In all instances analysis was by conventional HPLC (high pressure liquid chromatography). Details and citations are given for illustrative techniques.
To this solution was added 120 mg of hydroxypropylcellulose (Klucel® HF). […]

[2] = topical or ocular, In Vivo monkey plasma level
[3] = topical or ocular, Monkey Plasma Level

## CN1C(=O)CN=C(c2ccccc2)c2cc(Cl)ccc21 [Diazepam, 7-Chloro-1,3-dihydro-1-methyl-5-phenyl-2H-1,4-benzodiazepine-2-one]
[1]
  blood levels: approximately 100 ng/ml plasma
In vivo; po, Diazepam Plasma Level
  concentration at 1 h: 50 ng/mL
  concentration at 5 h: 34 ng/mL
In vivo; topical or ocular, 3 h
  Monkey Plasma Level: 42 ng/mL
In vivo; topical or ocular, 7 h
  Monkey Plasma Level: 30 ng/mL
In vivo; topical or ocular, Diazepam Plasma Level
  concentration at 2 h: 181 ng/mL
In vivo; [2]
  concentration at 1 h: 116 ng/mL
  concentration at 3 h: 57 ng/mL
  concentration at 5 h: 33 ng/mL
  concentration at 7 h: 29 ng/mL
In vivo; [3]
  concentration at 1 h: 35 ng/mL
  concentration at 3 h: 36 ng/mL
  concentration at 5 h: 37 ng/mL
  concentration at 7 h: 19 ng/mL
